# Results: the supplement of paper PMC8728848
# This is one part of the list.
# What was measured:
# Test in all cases: glycan array binding signal (z-score within array); higher = stronger binding
# Conditions in all cases: glycan notation: IUPAC condensed, linker removed
# [1] = target: Neu5Ac(a2-6)GalNAc(b1-4)GlcNAc6S
# Method in brief: (§1)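 The binding signal is a Z-score computed within each array and averaged over linkers. Arrays of the same protein sequence at different concentrations or buffers were also averaged together. Data originate from 3228 arrays in the Consortium for Functional Glycomics database, kept only where the protein sequence was available.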
# [2] = target: Neu5Ac(a2-6)GlcNAc(b1-4)GlcNAc
# Method in brief: as §1
# [3] = target: Neu5Ac(a2-6)GlcNAc(b1-4)GlcNAc(b1-4)GlcNAc
# Method in brief: as §1
# Neu5Ac(a2-8)Neu5Ac = target: Neu5Ac(a2-8)Neu5Ac
# Method in brief: as §1
# [4] = target: Neu5Ac(a2-8)Neu5Ac(a2-3)Gal(b1-3)GalNAc(b1-4)[Neu5Ac(a2-8)Neu5Ac(a2-3)]Gal(b1-4)Glc
# Method in brief: as §1
# [5] = target: Neu5Ac(a2-8)Neu5Ac(a2-3)Gal(b1-4)Glc
# Method in brief: as §1
# [6] = target: Neu5Ac(a2-8)Neu5Ac(a2-3)[Gal(b1-3)GalNAc(b1-4)]Gal(b1-4)Glc
# Method in brief: as §1
# [7] = target: Neu5Ac(a2-8)Neu5Ac(a2-3)[GalNAc(b1-4)]Gal(b1-4)Glc
# Method in brief: as §1
# [8] = target: Neu5Ac(a2-8)Neu5Ac(a2-8)Neu5Ac
# Method in brief: as §1
# [9] = target: Neu5Ac(a2-8)Neu5Ac(a2-8)Neu5Ac(a2-3)Gal(b1-4)Glc
# Method in brief: as §1
# [10] = target: Neu5Ac(a2-8)Neu5Ac(a2-8)Neu5Ac(a2-3)[GalNAc(b1-4)]Gal(b1-4)Glc
# Method in brief: as §1
# [11] = target: Neu5Ac(a2-8)Neu5Ac(a2-8)Neu5Ac(a2-8)Neu5Ac(a2-3)[GalNAc(b1-4)]Gal(b1-4)Glc
# Method in brief: as §1
# [12] = target: Neu5Ac(b2-6)Gal(b1-4)GlcNAc
# Method in brief: as §1
# Neu5Ac(b2-6)GalNAc = target: Neu5Ac(b2-6)GalNAc
# Method in brief: as §1
# [13] = target: Neu5Ac9Ac(a2-3)Gal(b1-3)GlcNAc
# Method in brief: as §1
# [14] = target: Neu5Ac9Ac(a2-3)Gal(b1-4)GlcNAc
# Method in brief: as §1
# [15] = target: Neu5Ac9Ac(a2-6)Gal(b1-4)GlcNAc
# Method in brief: as §1
# [16] = target: Neu5Gc(a2-3)Gal(b1-3)GlcNAc
# Method in brief: as §1
# [17] = target: Neu5Gc(a2-3)Gal(b1-3)[Fuc(a1-4)]GlcNAc
# Method in brief: as §1
# Neu5Gc(a2-3)Gal(b1-4)Glc = target: Neu5Gc(a2-3)Gal(b1-4)Glc
# Method in brief: as §1
# [18] = target: Neu5Gc(a2-3)Gal(b1-4)GlcNAc
# Method in brief: as §1
# [19] = target: Neu5Gc(a2-3)Gal(b1-4)[Fuc(a1-3)]GlcNAc
# Method in brief: as §1
# [20] = target: Neu5Gc(a2-6)Gal(b1-4)GlcNAc
# Method in brief: as §1
# Neu5Gc(a2-6)GalNAc = target: Neu5Gc(a2-6)GalNAc
# Method in brief: as §1
# [21] = target: Neu5Gc(b2-6)Gal(b1-4)GlcNAc
# Method in brief: as §1
binder,measurement,setting,value
CALR truncated at D342 (Homo sapiens) (protein) EPAVYFKEQFLDGDGWTSRWIESKHKSDFGKFVLSSGKFYGDEEKDKGLQTSQDARFYALSASFEPFSNKGQTLVVQFTVKHEQNIDCGGGYVKLFPNSLDQTDMHGDSEYNIMFGPDICGPGTKKVHVIFNYKGKNVLINKDIRCKDDEFTHLYTLIVRPDNTYEVKIDNSQVESGSLEDDWDFLPPKKIKDPDASKPEDWDERAKIDDPTDSKPEDWDKPEHIPDPDAKKPEDWDEEMDGEWEPPVIQNPEYKGEWKPRQIDNPDYKGTWIHPEIDNPEYSPDPSIYAYDNFGVLGLDLWQVKSGTIFDNFLITNDEAYAEEFGNETWGVTKAAEKQMKD,glycan array binding signal (z-score),[1],-1.16
same,glycan array binding signal (z-score),[2],-0.513
same,glycan array binding signal (z-score),[3],0.867
same,glycan array binding signal (z-score),Neu5Ac(a2-8)Neu5Ac,0.485
same,glycan array binding signal (z-score),[4],-1.36
same,glycan array binding signal (z-score),[5],-1.42
same,glycan array binding signal (z-score),[6],0.351
same,glycan array binding signal (z-score),[7],1.69
same,glycan array binding signal (z-score),[8],-0.607
same,glycan array binding signal (z-score),[9],2.14
same,glycan array binding signal (z-score),[10],-0.341
same,glycan array binding signal (z-score),[11],-0.302
same,glycan array binding signal (z-score),[12],0.129
same,glycan array binding signal (z-score),Neu5Ac(b2-6)GalNAc,-1.37
same,glycan array binding signal (z-score),[13],-0.862
same,glycan array binding signal (z-score),[14],-0.26
same,glycan array binding signal (z-score),[15],0.064
same,glycan array binding signal (z-score),[16],-0.728
same,glycan array binding signal (z-score),[17],1.46
same,glycan array binding signal (z-score),Neu5Gc(a2-3)Gal(b1-4)Glc,-0.957
same,glycan array binding signal (z-score),[18],-0.425
same,glycan array binding signal (z-score),[19],-0.648
same,glycan array binding signal (z-score),[20],0.573
same,glycan array binding signal (z-score),Neu5Gc(a2-6)GalNAc,-1.52
same,glycan array binding signal (z-score),[21],-0.299

# Reprinted from the listing (two entries):
binder,measurement,setting,value
CALR truncated at D342 (Homo sapiens) (protein) EPAVYFKEQFLDGDGWTSRWIESKHKSDFGKFVLSSGKFYGDEEKDKGLQTSQDARFYALSASFEPFSNKGQTLVVQFTVKHEQNIDCGGGYVKLFPNSLDQTDMHGDSEYNIMFGPDICGPGTKKVHVIFNYKGKNVLINKDIRCKDDEFTHLYTLIVRPDNTYEVKIDNSQVESGSLEDDWDFLPPKKIKDPDASKPEDWDERAKIDDPTDSKPEDWDKPEHIPDPDAKKPEDWDEEMDGEWEPPVIQNPEYKGEWKPRQIDNPDYKGTWIHPEIDNPEYSPDPSIYAYDNFGVLGLDLWQVKSGTIFDNFLITNDEAYAEEFGNETWGVTKAAEKQMKD,glycan array binding signal (z-score),[5],-1.42
same,glycan array binding signal (z-score),[6],0.351
